Reference: patent US20230406921A1
Positions count from the first letter of the chain named. No constants are given. Whether binding was seen depends on the method and setting. Some results given as binding are weak or reduced against the parent protein; the word gives no strength. Blank lines part the entries; values can stand above or below the binder they belong to.

Sequences of proteins named here, by UniProt entry; tags and fusion partners are left off. Residues count along the entry.
UniProt Q9NZQ7, residues 19-290: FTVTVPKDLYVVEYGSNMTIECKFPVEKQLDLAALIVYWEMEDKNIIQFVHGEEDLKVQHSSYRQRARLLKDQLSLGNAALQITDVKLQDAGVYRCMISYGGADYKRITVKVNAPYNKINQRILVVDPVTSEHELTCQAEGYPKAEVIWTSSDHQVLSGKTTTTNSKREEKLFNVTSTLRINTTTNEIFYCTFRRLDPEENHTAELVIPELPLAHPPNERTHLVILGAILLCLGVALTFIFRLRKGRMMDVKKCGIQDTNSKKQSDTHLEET
UniProt Q08722, residues 19-139: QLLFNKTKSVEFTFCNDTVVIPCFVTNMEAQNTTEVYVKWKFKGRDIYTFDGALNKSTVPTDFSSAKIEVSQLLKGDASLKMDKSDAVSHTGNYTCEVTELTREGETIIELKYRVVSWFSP

Experiments:
[1] = biological target: human PD-L1 on cells (human) (UniProt Q9NZQ7); assay: flow cytometry on MC38-hPD-L1/hCD47 cells
[2] = biological target: human PD-L1 on cells (human) (UniProt Q9NZQ7); assay: flow cytometry on A431 cells
CD47-His (human) = CD47-His (human) (UniProt Q08722); assay: Fortebio BLI

binding [1]: binds
binding [2]: binds
B1: anti-PD-L1 monoclonal antibody (hz182) (antibody, human IgG4 S228P, kappa, V domains shown)
VH: QLVQSGAEVKKPGATVKISCKVSGFNIKDIYMHWVQQAPGKGLEWMGRIDPANANTKYDPKFQDRVTITADTSTNTAYMELSSLRSEDTAVYYCASGQLGPLGFDYWGQGTTVTVSS
VL: DIQMTQSPSSLSASVGDRVTITCRASQDISNYLNWYQQKPGKAPKLLLYYTSRLHSGVPSRFSGSGSGTDYTLTISSLQPEDFATYFCQQGAGRPYTFGGGTKVEIKR

binding (CD47-His (human)): binds
B2: humanized 140 (hz140) (antibody, human IgG4 S228P, kappa, V domains shown)
VH: QVQLVQSGAEVKKPGASVKVSCKASGYKFTNYVMHWVRQAPGQRLEWMGYINPYNDGIKYNEKFTGRVTITRDTSASTAYMELSSLRSEDTAVYYCAREGDFYANYGRLGFAYWGQGTLVTVSS
VL: B1 VL with S30T, L48I, L73F, F83I, A92D, G93T, R94F, Y96R
